Measurements published in publication PMC7480851.
These are yes or no findings as the source states them, for the method shown. Binding seen in cells or lysates may run through a third protein. Some entries that bind do so weakly or less than the wild type.

Amino acid sequences for entries named in this document (tags omitted).
UniProt P22363: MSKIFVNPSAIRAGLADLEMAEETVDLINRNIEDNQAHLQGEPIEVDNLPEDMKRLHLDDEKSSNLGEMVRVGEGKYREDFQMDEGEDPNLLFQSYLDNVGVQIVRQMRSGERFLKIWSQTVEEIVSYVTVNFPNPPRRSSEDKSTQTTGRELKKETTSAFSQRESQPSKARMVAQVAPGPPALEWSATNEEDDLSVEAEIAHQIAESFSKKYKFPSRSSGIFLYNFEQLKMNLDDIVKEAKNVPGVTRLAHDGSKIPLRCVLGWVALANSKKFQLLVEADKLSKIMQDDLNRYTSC
UniProt P42224: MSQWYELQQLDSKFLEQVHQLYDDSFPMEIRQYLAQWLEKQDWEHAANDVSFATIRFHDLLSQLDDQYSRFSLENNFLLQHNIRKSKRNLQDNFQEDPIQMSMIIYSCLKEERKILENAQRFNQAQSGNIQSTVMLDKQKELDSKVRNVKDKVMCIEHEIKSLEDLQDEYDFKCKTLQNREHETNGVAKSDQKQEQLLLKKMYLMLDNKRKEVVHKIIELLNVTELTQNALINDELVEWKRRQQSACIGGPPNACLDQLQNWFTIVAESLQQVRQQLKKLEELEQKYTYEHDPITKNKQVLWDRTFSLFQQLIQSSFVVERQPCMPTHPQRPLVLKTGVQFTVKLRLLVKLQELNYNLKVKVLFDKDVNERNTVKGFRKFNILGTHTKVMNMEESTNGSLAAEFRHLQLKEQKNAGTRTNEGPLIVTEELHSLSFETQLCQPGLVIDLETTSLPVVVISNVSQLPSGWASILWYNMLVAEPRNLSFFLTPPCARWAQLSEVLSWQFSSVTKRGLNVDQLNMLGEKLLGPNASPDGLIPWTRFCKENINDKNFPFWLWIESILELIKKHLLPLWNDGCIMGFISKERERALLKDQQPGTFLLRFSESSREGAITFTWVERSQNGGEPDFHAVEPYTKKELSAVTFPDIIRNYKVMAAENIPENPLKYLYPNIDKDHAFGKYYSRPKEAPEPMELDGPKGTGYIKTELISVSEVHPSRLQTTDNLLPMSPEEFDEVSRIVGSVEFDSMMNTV

Target: GFP-fused full-length wildtype P-protein (phosphoprotein) of rabies virus challenge virus standard (CVS) strain (rabies virus (RABV), strain CVS) (UniProt P22363)
Test: co-IP

Substance: Signal transducer and activator of transcription 1 (STAT1), endogenous (from UniProt P42224 1-750)
- binding: binds
